Some of the results follow.
Experiments:
Assay in all cases: protein microarray (ProtoArray v5.0), streptavidin-Alexa Fluor 647
Conditions in all cases: 3'-biotin; 20 mM Tris (pH 7.5), 5 mM MgCl2, 100 mM KCl, 0.1% Tween-20, A/T-rich and random oligonucleotide blockers; temperature not stated; high values mean tight binding
FAAH2 (human) = system: FAAH2 (human)
FABP3 (human) = system: FABP3 (human)
FABP7 (human) = system: FABP7 (human)
FAH (human) = system: FAH (human)
FAIM (human) = system: FAIM (human)
FAM102A (human) = system: FAM102A (human)
FAM106B (human) = system: FAM106B (human)
FAM108B1 (human) = system: FAM108B1 (human)
FAM119A (human) = system: FAM119A (human)
FAM120C (human) = system: FAM120C (human)

GGGAGGCTGAGGCAGG [G4-1 biotinylated (PQS2)]
binding signal (FAAH2 (human)): -0.286 z-score | binding signal (FABP3 (human)): -0.352 z-score | binding signal (FABP7 (human)): -0.328 z-score | binding signal (FAH (human)): -0.338 z-score | binding signal (FAIM (human)): -0.304 z-score | binding signal (FAM102A (human)): -0.314 z-score | binding signal (FAM106B (human)): -0.337 z-score | binding signal (FAM108B1 (human)): -0.284 z-score | binding signal (FAM119A (human)): -0.316 z-score | binding signal (FAM120C (human)): -0.301 z-score

— publication PMC5996148
